In publication PMC11516157 one finds binding data, which are given here for one substance.

Chains of the proteins cited; added tags and fusions are not shown. Lines headed by an entry give the natural chain unless they say otherwise; changes in a name come on top.
UniProt P12643: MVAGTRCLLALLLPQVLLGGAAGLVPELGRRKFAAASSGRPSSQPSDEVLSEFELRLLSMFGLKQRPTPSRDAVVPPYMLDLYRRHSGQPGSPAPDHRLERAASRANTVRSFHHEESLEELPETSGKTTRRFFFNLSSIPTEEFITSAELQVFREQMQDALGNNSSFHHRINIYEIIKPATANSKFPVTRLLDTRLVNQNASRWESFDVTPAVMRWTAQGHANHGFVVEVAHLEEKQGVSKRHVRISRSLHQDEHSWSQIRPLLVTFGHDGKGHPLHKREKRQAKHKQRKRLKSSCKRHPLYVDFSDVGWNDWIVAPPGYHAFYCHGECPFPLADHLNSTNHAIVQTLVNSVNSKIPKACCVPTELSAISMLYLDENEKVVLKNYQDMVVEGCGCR

This experiment concerns the target T1, osteomodulin (OMD), endogenous in human renal interstitial fibroblasts (human (endogenous in hRIFs)) (UniProt Q99983).
T1 sequence: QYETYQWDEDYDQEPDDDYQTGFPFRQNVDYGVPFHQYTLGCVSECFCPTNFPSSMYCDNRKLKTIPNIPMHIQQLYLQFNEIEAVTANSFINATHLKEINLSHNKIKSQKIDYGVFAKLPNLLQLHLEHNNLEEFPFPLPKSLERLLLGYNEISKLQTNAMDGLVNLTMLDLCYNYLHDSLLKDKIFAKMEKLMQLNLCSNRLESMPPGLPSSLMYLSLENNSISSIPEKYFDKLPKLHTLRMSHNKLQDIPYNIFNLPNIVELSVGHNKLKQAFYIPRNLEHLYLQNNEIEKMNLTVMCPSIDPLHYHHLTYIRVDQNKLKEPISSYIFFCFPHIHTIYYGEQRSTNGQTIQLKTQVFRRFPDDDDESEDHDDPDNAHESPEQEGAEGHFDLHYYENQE
Nature of the experiment: affinity purification with mass spectrometry; anti-OMD or IgG (negative control) on magnetic protein A/G beads, whole cell lysate of hRIFs, 4 °C overnight; precipitates analysed by MALDI-TOF proteomics.

Results are given in words; binding and its absence hold for the method and conditions named. Binding seen in cells or lysates may run through a third protein. Here binding means that the protein was enriched with, or labelled near, the bait; the list need not be complete.

“bone morphogenetic protein 2 (BMP2), endogenous in human renal interstitial fibroblasts (from UniProt P12643)”: the binding entry is recorded as “binds”.
